Assay results published in PubChem BioAssay AID488837 (National Center for Advancing Translational Sciences (NCATS), 2010).
Screen size: about 330,000 compounds; about 20 (0.006%) were called active. This list was built around the results that the source calls inconclusive (neither active nor inactive); the mix of calls is not that of the screen. The call rests on the fitted dose curve; in most records, active means well fitted inhibition curve with a large enough effect; inconclusive means small, poorly fitted or top-dose-only effect, or effect the other way; inactive means flat fitted curve, though single readings scatter. Potencies beside an inconclusive call are fits to weak or partial responses and may not hold up.
On the % scale 0 is the no-effect control and ±100 the full control effect; potency means the concentration at half of the fitted maximal effect.

Amino acid sequences for entries named in this document (tags omitted). A change or cut given only in a name is not applied to a line headed by its entry.
UniProt O00167: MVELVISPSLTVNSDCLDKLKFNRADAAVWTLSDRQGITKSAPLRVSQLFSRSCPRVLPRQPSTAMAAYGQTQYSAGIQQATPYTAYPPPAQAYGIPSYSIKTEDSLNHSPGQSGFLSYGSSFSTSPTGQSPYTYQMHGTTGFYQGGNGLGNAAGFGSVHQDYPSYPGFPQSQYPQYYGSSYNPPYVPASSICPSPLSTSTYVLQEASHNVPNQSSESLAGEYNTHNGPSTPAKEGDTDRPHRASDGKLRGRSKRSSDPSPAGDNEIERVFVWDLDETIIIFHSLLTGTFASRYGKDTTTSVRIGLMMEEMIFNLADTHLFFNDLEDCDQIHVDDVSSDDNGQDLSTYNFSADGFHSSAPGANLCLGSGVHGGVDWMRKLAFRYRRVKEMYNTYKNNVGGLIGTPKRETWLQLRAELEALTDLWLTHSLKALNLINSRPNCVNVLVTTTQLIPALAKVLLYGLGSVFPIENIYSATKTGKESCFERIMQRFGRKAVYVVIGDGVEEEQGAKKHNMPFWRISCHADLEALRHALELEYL

What follows are molecules tested against Protein phosphatase EYA2 (Homo sapiens) (UniProt O00167) (assay: qHTS Assay for Inhibitors of the Phosphatase Activity of Eya2). Details: recombinant Eya2, OMFP fluorescence dephosphorylation (OMFP is methylfluorescein phosphate); activity, negative = inhibition: at 76.9 µM (top of the series) unless noted.
How it was run: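 Eya2 (0.2 uM) preincubated 10 min at ambient with compound, then OMFP substrate added at 50 uM; 10 min reaction in 50 mM HEPES pH 7.5, 50 mM NaCl, 5 uM MgCl2, 0.05% BSA, 1 mM DTT. Fluorescence read at Ex 485/Em 525 nm.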
With `O=C(O)CC/C(=N/Nc1ncc(C(F)(F)F)cc1Cl)C(=O)O` the Potency was “inactive”.
`O=C(Cc1cccs1)Nc1nc(-c2ccc(F)cc2F)cs1` was tested, and the Potency was “inactive”.
`Cc1nnc(NC(=O)CSc2nnc(CC(=O)Nc3ccccc3C)n2C)s1` was tested, and the Potency was “inactive”.
With `Cn1c(SCC(=O)O)nnc1-c1ccc(NC(=O)c2ccc(Cl)c(Cl)c2)cc1` the Potency was inconclusive: 17.8 µM [inhibitor, single point].
With `CCn1cc(S(=O)(=O)c2ccc(OC)cc2)c(=O)c2cc(OC)ccc21` the Potency was inconclusive: 28.2 µM [inhibitor, single point].
With `CN(C)c1ccc(-c2nnc(-c3ccccc3F)o2)cc1` the Potency was inconclusive: 89.1 µM [inhibitor, partial curve, poor fit].
`Cc1cccc(N2CCN(C(=O)c3cc4n(n3)C(C(F)(F)F)CC(c3ccco3)N4)CC2)c1C` (stereo unspecified) was tested, and the Potency was inconclusive: 141 µM [inhibitor, single point].
For `Cc1cccc(NNC(N)=S)c1`, the Potency was inconclusive: 1120 µM [inhibitor, single point].
`O=P(O)(CCc1ccccc1)C(O)c1ccccc1` (stereo unspecified) was tested, and the Potency was inconclusive: 100 µM [inhibitor, single point].
In the case of `CCCCNC(=O)c1cc2c(=O)n3cccc(C)c3nc2s1`, the Potency is reported as inconclusive: 22.4 µM [inhibitor, single point].
`Cc1ccc(C(=O)Nc2ccc(Oc3cccc(C(F)(F)F)c3)nc2)cc1` was tested, and the Potency was inconclusive: 89.1 µM [inhibitor, single point].
`C#CCOCCOCCOCCNc1nc(N2CCN(C(=O)CCCCCCCCCCNC(=O)[C@H](CO)n3cc(CCCSC)nn3)CC2)nc(N2CCN(C(=O)CCCCCCCCCCNC(=O)[C@H](CCCCN)n3cc(C[C@@H](C)CC)nn3)CC2)n1` was tested, and the Potency was inconclusive: 70.8 µM [inhibitor, single point].
For `CCOC(=O)c1c(NC(=O)C2CCCCC2)sc2c1CCN(C(C)C)C2`, the Potency was inconclusive: 1780 µM [inhibitor, partial curve].
`COc1cccc(NC(=O)COC(=O)c2ccccc2C(=O)N2CCN(c3ccccc3)CC2)c1` was tested, and the Potency was inconclusive: 100 µM [inhibitor, single point].
`CN1CCN(CCCNC(=O)c2ccc(CSCc3cccc(Cl)c3)o2)CC1` was tested, and the Potency was “inactive”.
`NNC(=O)c1ccc(COc2ccc(Br)cc2)o1` was tested, and the Potency was inconclusive: 25.1 µM [inhibitor, single point].
In the case of `CCCN1C=CC(=CC=C(C#N)C#N)C=C1`, the activity, negative = inhibition is reported as inconclusive: 41.2% [activator].
In the case of `CCCCNc1ccc2c3c(cccc13)C(=O)N(CCCC)C2=O`, the Potency is reported as inconclusive: 15.8 µM [activator, partial curve].
For `COc1cccc(NS(=O)(=O)c2ccc3c(c2)CCN3C(C)=O)c1`, the Potency was inconclusive: 89.1 µM [inhibitor, single point].
With `Cc1nn(-c2ccc(C(F)(F)F)cn2)c(C)c1Oc1ccccc1O` the Potency was inconclusive: 25.1 µM [inhibitor, partial curve, poor fit].
For `CCOCCCN1CC(=O)N2[C@@H](Cc3c([nH]c4ccccc34)C2(C)C)C1=O`, the Potency was inconclusive: 200 µM [inhibitor, partial curve].
With `O=S(=O)(c1ccc(Br)cc1)c1nc(-c2ccco2)oc1NCCCn1ccnc1` the Potency was inconclusive: 79.4 µM [activator, partial curve].
For `O=[N+]([O-])c1ccc(Oc2cccnc2)nc1`, the Potency was inconclusive: 100 µM [inhibitor, single point].
With `CCOc1ccc(CCNC(=O)Nc2cccc(OC)c2)cc1OCC` the Potency was inconclusive: 100 µM [inhibitor, single point].
For `O=C(O)c1cc(O)c2c(c1)[C@@H]([C@H]1c3cc(C(=O)O)cc(O)c3C(=O)c3c(O[C@@H]4O[C@H](CO)[C@@H](O)[C@H](O)[C@H]4O)cccc31)c1cccc(O[C@@H]3O[C@H](CO)[C@@H](O)[C@H](O)[C@H]3O)c1C2=O`, the Potency was inconclusive: 56.2 µM [inhibitor, single point].
For `CCC(=O)Oc1ccc(-c2cnc3ccccc3n2)cc1`, the Potency was inconclusive: 100 µM [inhibitor, single point].
In the case of `Cc1c(NC(=O)c2ccc3c4c(cccc24)CC3)c(=O)n(-c2ccccc2)n1C`, the Potency is reported as inconclusive: 70.8 µM [inhibitor, single point].
For `Cc1cc(/C=C2\SC(=S)NC2=O)cc(C)c1O`, the Potency was inconclusive: 15.8 µM [inhibitor, partial curve, poor fit].
For `O=C(Nc1ccccc1NC(=O)NC1CCCCC1)NC1CCCCC1`, the Potency was “inactive”.
In the case of `O=C1CCN(Cc2ccc(Br)cc2)CCN1[C@H](CO)Cc1ccccc1`, the Potency is reported as “inactive”.
For `CC(=NCCc1ccccc1)C1=C(O)CCC1=O`, the Potency was “inactive”.
With `O=C(c1ccco1)N1CCN(Cc2nc(Cc3ccccc3)no2)CC1` the Potency was inconclusive: 89.1 µM [inhibitor, single point].
With `COc1ccc(N2CCN(CC(=O)c3c[nH]c4ccccc34)CC2)cc1` the Potency was inconclusive: 112 µM [inhibitor, single point].
`C/C(=N\Nc1ncc(Br)cn1)c1cccc([N+](=O)[O-])c1` was tested, and the Potency was inconclusive: 2510 µM [inhibitor, partial curve, poor fit].
`O=C(Cc1c[nH]c2ccccc12)NC1(C(=O)NC2CCCC2)CCCCC1` was tested, and the Potency was inconclusive: 28.2 µM [inhibitor, partial curve].
`O=C(CCl)NNC(=O)c1c(O)c2ccccc2[nH]c1=O` was tested, and the Potency was “inactive”.
With `COc1cccc(N=Nc2c(N)[nH]n3c(=O)cc(-c4ccccc4)nc23)c1` the Potency was “inactive”.
With `Cc1ccc2c(c1)cc(C(=O)N1CCN(c3ccccn3)CC1)n2C` the Potency was inconclusive: 25.1 µM [inhibitor, single point].
For `COc1ccc(C(=O)NCC(=O)NCc2ccncc2)cc1`, the Potency was “inactive”.
For `COc1cc2c(C(=O)N3CCN(c4cccc(Cl)c4)CC3)cn(C)c(=O)c2cc1OC`, the Potency was “inactive”.
For `O=C(Cc1ccccc1F)OCC(=O)N1CCN(C(=O)c2ccco2)CC1`, the Potency was inconclusive: 100 µM [inhibitor, single point].
With `Cc1cc(N2CCOCC2)ccc1/C=C1\NC(=O)N(CC(=O)Nc2ccccc2C)C1=O` the Potency was inconclusive: 79.4 µM [inhibitor, single point].
`COc1ccc(C2c3ccc(O)cc3Oc3ncn(CCN4CCOCC4)c(=N)c32)cc1OC` (stereo unspecified) was tested, and the Potency was inconclusive: 63.1 µM [inhibitor, partial curve].
`CCCCc1c(C)[nH]c(=S)[nH]c1=O` was tested, and the Potency was inconclusive: 100 µM [inhibitor, single point].
In the case of `COc1ccccc1CCN=C(N)NS(=O)(=O)c1ccccc1`, the Potency is reported as inconclusive: 28.2 µM [inhibitor, single point].
In the case of `CC(=O)Nc1nc(C)c(CCCOc2ccc([N+](=O)[O-])cc2)c(=O)[nH]1`, the Potency is reported as inconclusive: 89.1 µM [inhibitor, single point].
With `COc1ccc(C(CC(=O)O)NC(=O)c2cc3cc(Br)ccc3oc2=O)cc1OC` (stereo unspecified) the Potency was inconclusive: 28.2 µM [inhibitor, single point].
In the case of `CCN(CC)/C(Sc1ccccc1)=C(\C(Cl)=C(Cl)Cl)[N+](=O)[O-]`, the Potency is reported as inconclusive: 31.6 µM [inhibitor, single point].
In the case of `CN1CCN(C(=O)CCN2C(=O)/C(=C\c3ccc(Cl)cc3Cl)SC2=S)CC1`, the Potency is reported as inconclusive: 63.1 µM [inhibitor, single point].
With `Cc1ccc2c(c1)c(/C=C/c1cc[n+](C)cc1)c(C)n2C` the Potency was inconclusive: 25.1 µM [activator, partial curve].
For `CCOC(=O)/C=C/C(=O)OCC(=O)N1CCN(C(=O)c2ccco2)CC1`, the Potency was “inactive”.
`Cc1ccc(S(=O)(=O)c2nc(S(=O)(=O)c3ccccc3)sc2N2CCN(C)CC2)cc1` was tested, and the Potency was inconclusive: 89.1 µM [inhibitor, single point].
In the case of `COc1ccc(/C=N/NC(=O)c2ccccc2O)cc1COc1ccccn1`, the Potency is reported as inconclusive: 79.4 µM [inhibitor, single point].
`COc1cc(C2Nc3ccccc3C(=O)N2c2ccccc2)ccc1O` (stereo unspecified) was tested, and the Potency was “inactive”.
In the case of `CCOc1ccc(NC(=O)CN(C)C(=O)c2ccc(C3SCCS3)cc2)cc1OCC`, the Potency is reported as “inactive”.
For `N#Cc1cc(Nc2c(N)nc[nH]c2=O)c([N+](=O)[O-])cc1C#N`, the Potency was inconclusive: 20 µM [inhibitor, single point].
In the case of `C[n+]1cc(C(=O)N2CCCCC2)ccc1/C=C/c1c[nH]c2ccccc12`, the Potency is reported as inconclusive: 158 µM [activator, partial curve].
For `CC(NC(=O)c1ccco1)C(c1cccs1)N1CCOCC1` (stereo unspecified), the Potency was inconclusive: 50.1 µM [inhibitor, single point].
For `C[C@@H](NC(=O)OC(C)(C)C)c1nnc(S(=O)(=O)Cc2ccccc2)o1`, the Potency was inconclusive: 100 µM [inhibitor, single point].
In the case of `Cc1[nH]c2ccccc2c1SCC(=O)N1CCCCC1`, the Potency is reported as inconclusive: 25.1 µM [inhibitor, single point].
`Cc1ccsc1/C=C1/NC(=O)N(Cc2ccc(F)cc2)C1=O` was tested, and the Potency was inconclusive: 100 µM [inhibitor, single point].
In the case of `COCc1nn2c(N)c(C#N)cnc2c1-c1ccccc1`, the Potency is reported as “inactive”.
For `C=C(C)CSc1nc2sc3c(c2c(=O)n1-c1ccc(C)cc1)CCN(C)C3`, the Potency was inconclusive: 100 µM [inhibitor, partial curve].
For `O=[N+]([O-])c1ccc(N=Nc2ccc(O)cc2O)cc1`, the Potency was “inactive”.
For `Cc1ccc(OCCn2ncc3ccccc3c2=O)c(C)c1`, the Potency was inconclusive: 20 µM [inhibitor, single point].
For `Cc1cc(=O)[nH]c2nnnn12`, the Potency was inconclusive: 20 µM [inhibitor, single point].
